According to publication PMC7311171 (2020):

Columns and labels:
[1] = biological target: BBS1, subunit of the bovine BBSome (bovine (endogenous in retina)); assay: cryo-EM structure; BBSome alone, purified from bovine retina, 0.4–0.6 mg/mL; map at 3.4 Å; both purified
[2] = biological target: BBS1, subunit of the bovine BBSome (bovine (endogenous in retina)); assay: cryo-EM structure; full-length ARL6 incubated with GTP (1:20) and added to purified BBSome at a molar ratio of 5:1, on ice; map at 4.0 Å; both purified
[3] = biological target: BBS7, subunit of the bovine BBSome (bovine (endogenous in retina)); assay: as above

B1: BBS4, subunit of the bovine BBSome (protein, UniProt Q1JQ97 1-519)
chain: MAEEKLSARTQLPVSAESQKPVLKKAPEFPILEKQNWLIHLYYIQKDYEACKAVIKEQLQETHGLCEYAIYVQALIFRLEGNIQESLRLFQMCAFLSPQCADNLKQVARSLFLLGKHKAAIEVYNEAAKLNQKDWEICHNLGVCYIYLKQFDKAQDQLHNALHLNRHDLTYIMLGKIFLLKGDLDKAIEIYKKAVEFSPENTELLTTLGLLYLQLGIYQKAFEHLGNTLTYDPTNYKAILAAGSMMQTHGDFDVALTKYKVVACAVIESPPLWNNIGMCFFGKKKYVAAISCLKRANYLAPLDWKILYNLGLVHLTMQQYASAFHFLSAAINFQPKMGELYMLLAVALTNLEDSENAKRAYEEAVRLDKCNPLVNLNYAVLLYNQGEKRDALAQYQEMEKKVNLLKYSSSLEFDPEMVEVAQKLGAALQVGEALVWTKPVKDPKSKHQTASTSKAAGFQQPLGSNQALGQAMSSAATCRKLSSGAGGTSQLTKPPSLPLEPEPTVEAQPTEASAQTREK
For B1, the binding [1] was “binds”.

B2: ARL6^GTP (full-length ARL6 incubated with GTP) (protein, UniProt Q0IIM2 1-186)
chain: MGLLDRLSGLLGLKKKEVHVLCLGLDNSGKTTIINKLKPSNAQSQDIVPTIGFSIQKFKSSSLSFTVFDMSGQGRYRNLWEHYYKEGQAIIFVIDSSDKLRMVVAKEELRTLLNHPDIKHRRIPILFFANKMDLRDALTSVKVSQLLCLEDIKDKPWHICASDAIKGEGLQEGVDWLQDQIQSVKT
In the case of B2, the binding [2] is reported as “binds” and the binding [3] is reported as “binds”.

These are yes or no findings as the source states them, for the method shown. Binding can be weak; no strength is given.
